# The whole screen tested about 320,000 compounds, of which about 22,000 (6.9%) were called active. This list was built around the results that the source calls inconclusive (neither active nor inactive); the mix of calls is not that of the screen. The call rests on the fitted dose curve; in most records, active means well fitted inhibition curve with a large enough effect; inconclusive means small, poorly fitted or top-dose-only effect, or another doubt; inactive means no such curve, though single readings can be large or run the other way. A potency beside an inconclusive call is a rough fit, not a confirmed value.
# Experiment: Primary qHTS for delayed death inhibitors of the malarial parasite plastid, 96 hour incubation
# Settings: P. falciparum luciferase reporter growth; series mostly up to 28.7 µM; activity change, negative = inhibition: at the top concentration
# Method in brief: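 Delayed-death screen, second-generation endpoint: infected erythrocytes, 2% hematocrit, 0.05% parasitemia final; 96 hours at 37 C, 5% CO2; luciferase detection reagent; luminescence decrease equals reduced growth.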
# On the % scale 0 is the no-effect control and ±100 the full control effect; potency means the concentration at half of the fitted maximal effect.
SMILES,Potency,"activity change, negative = inhibition"
O=C(OCC(=O)N1CCc2ccccc21)c1ccc[n+]([O-])c1,"inconclusive: 0.117 µM [inhibitor, full curve]",
COc1ccc(Cl)cc1NC(=O)CN(C)C(=O)CCCc1c[nH]c2ccccc12,"inconclusive: 10.4 µM [inhibitor, single point]",
COc1cccc(OC)c1C(=O)NC(=S)Nc1ccc2c(c1)C(=O)N(C)C2=O,"inconclusive: 0.928 µM [inhibitor, full curve]",
C=CCNC(=O)c1ccccc1NC(=O)C1COc2ccccc2O1 (centres undefined),"inconclusive: 18.5 µM [inhibitor, single point]",
COc1ccccc1N(C)S(=O)(=O)c1ccc(C(=O)Nc2nccs2)cc1,"inconclusive: 14.7 µM [inhibitor, single point]",
CCN(CC)c1nc2c(c(=O)n(C)c(=O)n2C)n1CC(=O)c1ccccc1,,inactive: -16.5%
Cc1nc(SCC(=O)NCC2CCCO2)[nH]c(=O)c1C (centres undefined),,inactive: 4.06%
Cc1ccccc1N1C(=O)C2ON(c3ccccc3)C(c3ccco3)C2C1=O (centres undefined),,inactive: 14.4%
COc1ccc(NC(=O)c2cc(Cl)ccc2Cl)c([N+](=O)[O-])c1,"inconclusive: 0.586 µM [inhibitor, partial curve, poor fit]",
O=C(NC(=S)Nc1cccc2cc(O)ccc12)c1ccccc1Br,active: 13.1 µM,
CCN=c1scc(-c2ccc3c(c2)NC(=O)CO3)n1N=C1CCCC1,"inconclusive: 18.5 µM [inhibitor, single point]",
COc1ccc(NC(=O)/C=C/C(=O)O)cc1Cl,,inactive: 36.8%
CCOC(=O)N1CCN(C(c2cccc(OC)c2)c2sc3nc(C)nn3c2O)CC1 (centres undefined),"inconclusive: 10.4 µM [inhibitor, partial curve, poor fit]",
CCc1ccccc1NC(=O)CCNS(=O)(=O)c1cc(Br)cnc1N,"inconclusive: 13.1 µM [inhibitor, partial curve, poor fit]",
Cc1ccc(CNC(=O)c2cc3cc(Br)ccc3oc2=N)cc1,,inactive: 23.3%
CC1CCCCC12NC(=O)N(CC(=O)N1CCc3ccccc3C1)C2=O (centres undefined),,inactive: 30.5%
O=C(c1ccccc1)N1N=C(c2ccco2)CC1c1cccs1 (centres undefined),,inactive: 34.4% [at 5.75 µM]
OC(CNC1CCCc2ccccc21)COc1ccc2ccccc2c1 (centres undefined),"inconclusive: 18.5 µM [inhibitor, partial curve, poor fit]",
C=C1C(n2cnc3c(=O)[nH]c(N)nc32)C[C@H](O)[C@H]1CO (some centres undefined),active: 6.01 µM,
CCOc1ccc(N2C(=O)c3ccccc3C2O)cc1 (centres undefined),"inconclusive: 10.4 µM [inhibitor, single point]",
CCC(Sc1nc2ccsc2c(=O)n1Cc1ccc(C(=O)O)cc1)C(=O)Nc1ccc(C)c(Cl)c1 (centres undefined),"inconclusive: 0.928 µM [inhibitor, partial curve, poor fit]",
C/C(=N\NC(=O)CCn1nc(C)cc1C)C(C)(C)C,"inconclusive: 9.28 µM [inhibitor, single point]",

SMILES,Potency,"activity change, negative = inhibition"
CCc1ccc(CN(C)C(=O)c2cc(S(=O)(=O)N3CCOCC3)ccc2N2CCCC2)cc1,"inconclusive: 13.1 µM [inhibitor, partial curve, poor fit]",
CCOC(=O)c1c(C)c(C(=O)NCc2cccnc2)c(C)n1CC,active: 3.7 µM,
[O-][n+]1onc2c1CCc1c-2nn(-c2ccccc2Cl)[n+]1[O-],"inconclusive: 2.62 µM [inhibitor, partial curve, poor fit]",
COc1ccnc(N=CNOCc2ccc(C)cc2)c1C#N,,inactive: -14.5%
CCC(Oc1ccccc1)C(=O)O/N=C(\N)c1ccc(OC)c(OC)c1 (centres undefined),"inconclusive: 10.4 µM [inhibitor, single point]",
COc1ccc(Cn2nnnc2CN2CCCCCC2)cc1,"inconclusive: 18.5 µM [inhibitor, partial curve, poor fit]",
Cc1cccc(/C=C(\c2nc3ccccc3[nH]2)S(=O)(=O)c2ccccc2)c1,"inconclusive: 1.85 µM [inhibitor, full curve, poor fit]",
O=C1CC(c2ccccc2)CC(O)=C1C=Nc1ccc(O)cc1 (centres undefined),active: 13.1 µM,
CCOc1ccccc1NC(=O)CSc1nnc(Cn2c(=O)sc3ccccc32)n1C,"inconclusive: 6.57 µM [inhibitor, partial curve]",
CS(=O)(=O)N1CCC(C(=O)Nc2cccc(Br)c2)CC1,"inconclusive: 11.7 µM [inhibitor, partial curve, poor fit]",
NC(=O)c1c(NC(=O)c2ccc(S(=O)(=O)N3CCOCC3)cc2)sc2c1CCCCC2,"inconclusive: 18.5 µM [inhibitor, single point]",
Cc1ccc(C(=O)Nc2ncnc3sc4c(c23)CCCCC4)cc1,"inconclusive: 3.7 µM [inhibitor, single point]",
CC(C)CCN(C(=O)CNC(=O)c1cccs1)C(C(=O)NC1CCCC1)c1ccncc1 (centres undefined),,inactive: 5.72%
COc1cc(C2CC(=O)c3c(O)cc(O)cc3O2)ccc1O (centres undefined),"inconclusive: 18.5 µM [inhibitor, single point]",
CC(=O)N1CCN(CCN2C(C)=CC(=C(C#N)C#N)C=C2C)CC1,"inconclusive: 11.7 µM [inhibitor, single point]",
COC(=O)C(O)(c1ccc(NC(=O)c2cccs2)c(C)c1)C(F)(F)F (centres undefined),,inactive: 39.3%
COc1ccc(C(=O)N/N=C/c2sc3ccccc3c2O)cc1,"inconclusive: 18.5 µM [inhibitor, single point]",
NC(=O)CC(NC(=O)Cc1cccc2ccccc12)c1ccc(NC2CCN(Cc3ccccc3)CC2)c([N+](=O)[O-])c1 (centres undefined),"inconclusive: 18.5 µM [inhibitor, single point]",
N#CCC(=O)Nc1nc(-c2ccc3c(c2)OCCO3)cs1,active: 10.4 µM,
CCC(C)N=CC1=C(O)CC(c2ccccc2)CC1=O (centres undefined),"inconclusive: 18.5 µM [inhibitor, single point]",
COc1ccccc1N1CCN(S(=O)(=O)c2cc(Br)cnc2N)CC1,"inconclusive: 0.233 µM [inhibitor, full curve, poor fit]",
COc1ccc(C(=O)Oc2ccc[nH]c2=O)cc1,,inactive: 13.1%

# Part of the list above in order of formula weight, low to high.
SMILES,Potency,"activity change, negative = inhibition"
COc1ccc(NC(=O)/C=C/C(=O)O)cc1Cl,,inactive: 36.8%
Cc1ccc(C(=O)Nc2ncnc3sc4c(c23)CCCCC4)cc1,"inconclusive: 3.7 µM [inhibitor, single point]",
OC(CNC1CCCc2ccccc21)COc1ccc2ccccc2c1 (centres undefined),"inconclusive: 18.5 µM [inhibitor, partial curve, poor fit]",
Cc1cccc(/C=C(\c2nc3ccccc3[nH]2)S(=O)(=O)c2ccccc2)c1,"inconclusive: 1.85 µM [inhibitor, full curve, poor fit]",

# Source: PubChem BioAssay AID504834 (National Center for Advancing Translational Sciences (NCATS), 2011)
